Among all 300,000 compounds or so, about 5,400 (1.8%) were called active. The inconclusive results got no clear call from the source; some entries with a clear call stand among them for comparison. Calls follow the shape of the full dose curve; tested in HEK293 cells. Potencies of inconclusive entries are doubtful fits and often do not repeat.
Test: qHTS for inhibitors of binding or entry into cells for Marburg Virus
Details: Marburg virus pseudotyped entry inhibition, cell reporter; series mostly up to 37.8 µM
Potency is read from the fitted curve at half-maximal effect.

Structure (SMILES)	Potency
COc1ccc(-n2ncc3c2CC(C)(C)CC3NC(=O)c2ccoc2C)cc1 (configuration not stated)	inconclusive: 15.8 µM [inhibitor, partial curve, poor fit]
CC1(C(=O)NCc2ccc(Cl)c(Cl)c2)Oc2cccnc2NC1=O (configuration not stated)	inactive
Cc1ccc(C(=O)CCC(=O)OCC(=O)N2c3ccccc3NC(=O)C2(C)C)cc1	inconclusive: 17.8 µM [inhibitor, single point]
c1ccc(COc2cccc(CNCc3cccs3)c2)cc1	inconclusive: 0.501 µM [activator, partial curve, poor fit]
COc1ccccc1NC(=O)c1sc2ncn(Cc3cccc(C)c3)c(=O)c2c1C	inconclusive: 1.3 µM [inhibitor, partial curve, poor fit]
COC(=O)CCC(=O)OC1(C)C(=O)C=C2C=C(C3CC3)N(Cc3ccc(OC)cc3)C=C2C1=O (configuration not stated)	inactive
O=C(Nc1cc(C(=O)N2CCCC2)ccc1N1CCCC1)c1ccccc1	inactive
O=C1C=C(NCc2ccccc2)C2(CCCCC2)O1	inactive
CCOC(=O)c1ccc(Nc2nc(-c3cccnc3)nc3ccccc23)cc1	inconclusive: 20 µM [inhibitor, partial curve, poor fit]
O=C(CCSc1ccc(Cl)cc1)N1CCN(S(=O)(=O)c2ccccc2)CC1	inconclusive: 3.55 µM [inhibitor, partial curve, poor fit]
COc1ccc2c(c1OC)C(=O)OC2C1c2cc3c(cc2CCN1C)OCO3 (configuration not stated)	inconclusive: 11.2 µM [inhibitor, partial curve, poor fit]
Cc1nnc(SCc2ccccc2F)n1NCc1cccs1	inactive
O=C(c1nn2c(C(F)(F)F)cc(-c3ccccc3)nc2c1Cl)N1CCN2CCCC2C1 (configuration not stated)	inconclusive: 1.58 µM [inhibitor, partial curve, poor fit]
O=C(CCSCCc1ccccn1)Nc1ccc(Cl)cn1	inactive
CC(=O)c1ccc(OCC(=O)OCc2cc(-c3ccco3)on2)cc1	inactive
Clc1ccc(COC(Cn2ccnc2)c2ccc(Cl)cc2Cl)cc1 (configuration not stated)	inactive
COc1ccc(S(=O)(=O)N2CC3CC(C2)c2cccc(=O)n2C3)cc1 (configuration not stated)	inactive
Cc1oc2cc(O)cc(C)c2c(=O)c1-c1cnn(-c2ccccc2)c1	inconclusive: 2.82 µM [inhibitor, full curve]
COc1ccc(C(C)n2c(C)c3c(C)nnc(C)c3c2C)cc1 (configuration not stated)	inconclusive: 29.1 µM [inhibitor, single point]
COc1ccccc1NC(=O)CN(C)S(=O)(=O)c1cc(C)ccc1OC	inactive
Cc1cccc(C)c1OCc1nnc(NC(=O)CSc2ccc(Cl)cc2)s1	inconclusive: 1.12 µM [activator, full curve, poor fit]
C=CCOC(=O)c1cn(CC)c2nc(C)ccc2c1=O	inconclusive: 35.5 µM [activator, single point]
Nc1c(C(=O)Nc2ccccc2)c2nc3ccccc3nc2n1CCCN1CCOCC1	inconclusive: 22.4 µM [inhibitor, single point]
COC(=O)C1=C(C)NC2=C(C(=O)CC(C)(C)C2)C1c1cn(Cc2ccc(Br)cc2)nc1-c1ccccc1 (configuration not stated)	inconclusive: 35.5 µM [inhibitor, single point]

Structure (SMILES)	Potency
CCCCNC(=O)N1c2ccccc2CC1C (configuration not stated)	inactive
Cc1ccc2c(c1)c1c(c(=O)n(Cc3ccccc3)c(=O)n1CC(=O)NCc1ccccc1Cl)n2C	inactive
CO/N=C/c1ccc(N2CCN(C(=O)c3ccc(Cl)cc3Cl)CC2)c([N+](=O)[O-])c1	inconclusive: 29.1 µM [inhibitor, single point]
Cc1cc(NC(=O)c2ccccc2F)n(-c2nc3ccccc3[nH]2)n1	inactive
O=C(CCN1CCc2ccccc2C1)Nc1ccccc1	inconclusive: 8.2 µM [inhibitor, partial curve, poor fit]
CN1CCN(c2ncnc3scc(-c4ccccc4Cl)c23)CC1	inconclusive: 3.98 µM [inhibitor, full curve, poor fit]
Cc1ccc(NC(=O)C2CCCN(c3ncccn3)C2)cc1F (configuration not stated)	inactive
C=CCN1C(=O)[C@@]2(CC(C)=CC[C@@H](C)O2)c2ccccc21	inconclusive: 2.66 µM [activator, single point]
O=S(=O)(c1ccc2c(c1)CCN2)N1CCCCCC1	inactive
CC1CCN(S(=O)(=O)c2ccc3c(c2)CCN3C(=O)Nc2ccc(Br)cc2)CC1	inconclusive: 15.8 µM [activator, partial curve, poor fit]
COc1cccc(NC(=O)C2C3C=CC(C3)C2C(=O)O)c1 (configuration not stated)	inactive
COc1ccc(/C=C/C(=O)NC2CCCCCCC2)cc1S(=O)(=O)N1CCOCC1	inconclusive: 35.5 µM [inhibitor, single point]
Cc1ccccc1C(=O)N1CCN(CCc2ccccn2)CC1	inactive
N#Cc1c2c(c(Nc3ccccc3)n3c1nc1ccccc13)CCC2	inconclusive: 35.5 µM [inhibitor, partial curve, poor fit]
Cc1c(O)c(CN2CCCC2)cc2c3c(c(=O)oc12)CCC3	inactive
Cc1cc(C)n(-c2nc3ccccc3c(=O)n2OCC#N)n1	active: 7.94 µM
COc1ccc2nc(NC(=O)Cn3cnc4c(=O)n(C)c(=O)n(C)c43)sc2c1	inactive
COc1ccccc1CNC(=O)COC(=O)c1cccnc1SCC(=O)NCc1ccccc1OC	inactive
Cc1ccc(NC(=O)/C(=C/c2cccc([N+](=O)[O-])c2)NC(=O)C2CCCCC2)c(C)c1	inconclusive: 29.1 µM [inhibitor, single point]
Cc1cc(C)nc(N/N=C/c2cn[nH]c2-c2ccc(F)cc2)n1	inconclusive: 35.5 µM [inhibitor, single point]
Cc1ccc(NC(=O)C2CCCN2S(=O)(=O)c2cccc3nsnc23)cc1Cl (configuration not stated)	inactive
COc1ccc(CNC(=O)c2ccc3c(c2)CCN3S(=O)(=O)c2ccc(C)cc2)cc1	inconclusive: 11.2 µM [inhibitor, partial curve, poor fit]
COc1ccc(CC(=O)Nc2cc(S(=O)(=O)N3CCCCC3)ccc2C)cc1	inactive

Three records picked at random from the list so far, as already listed:
Structure (SMILES)	Potency
COc1ccc(/C=C/C(=O)NC2CCCCCCC2)cc1S(=O)(=O)N1CCOCC1	inconclusive: 35.5 µM [inhibitor, single point]
O=C1C=C(NCc2ccccc2)C2(CCCCC2)O1	inactive
COc1ccc2c(c1OC)C(=O)OC2C1c2cc3c(cc2CCN1C)OCO3 (configuration not stated)	inconclusive: 11.2 µM [inhibitor, partial curve, poor fit]

Source: PubChem BioAssay AID540276 (National Center for Advancing Translational Sciences (NCATS), 2011)
